# According to the supplement of paper PMC8728848:
# Some of the results follow.
# What was measured:
# Experiment in all cases: glycan array binding signal (z-score within array); higher = stronger binding
# Settings in all cases: glycan notation: IUPAC condensed, linker removed
# [1] = target: Fuc(a1-3)GlcNAc
# In short: (§1)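 Glycan array binding is given as a within-array Z-score, which can be read as non-binding when negative. The arrays, 3228 of them, came from the Consortium for Functional Glycomics database and were retained only where the protein sequence was available. Z-scores were averaged across arrays of the same protein sequence at different concentrations or buffers and across linkers.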
# [2] = target: Fuc(a1-3)[Gal(b1-4)]Glc6S
# In short: as §1
# [3] = target: Fuc(a1-3)[Gal(b1-4)]GlcNAc
# In short: as §1
# [4] = target: Fuc(a1-3)[Gal(b1-4)]GlcNAc(b1-2)Man
# In short: as §1
# [5] = target: Fuc(a1-3)[Gal(b1-4)]GlcNAc(b1-2)Man(a1-3)[Fuc(a1-3)[Gal(b1-4)]GlcNAc(b1-2)Man(a1-6)]Man(b1-4)GlcNAc(b1-4)GlcNAc
# In short: as §1
# [6] = target: Fuc(a1-3)[Gal(b1-4)]GlcNAc(b1-2)Man(a1-3)[Fuc(a1-3)[Gal(b1-4)]GlcNAc(b1-2)Man(a1-6)]Man(b1-4)GlcNAc(b1-4)[Fuc(a1-6)]GlcNAc
# In short: as §1
# [7] = target: Fuc(a1-3)[Gal(b1-4)]GlcNAc(b1-3)Gal(b1-3)[Fuc(a1-4)]GlcNAc
# In short: as §1
# [8] = target: Fuc(a1-3)[Gal(b1-4)]GlcNAc(b1-3)Gal(b1-4)[Fuc(a1-3)]GlcNAc
# In short: as §1
# [9] = target: Fuc(a1-3)[Gal(b1-4)]GlcNAc(b1-3)Gal(b1-4)[Fuc(a1-3)]GlcNAc(b1-3)Gal(b1-4)[Fuc(a1-3)]GlcNAc
# In short: as §1
# [10] = target: Fuc(a1-3)[Gal(b1-4)]GlcNAc(b1-3)GalNAc
# In short: as §1
# [11] = target: Fuc(a1-3)[Gal(b1-4)]GlcNAc(b1-6)GalNAc
# In short: as §1
# [12] = target: Fuc(a1-3)[Gal(b1-4)]GlcNAc(b1-6)[Gal(b1-3)GlcNAc(b1-3)]Gal(b1-4)Glc
# In short: as §1
# [13] = target: Fuc(a1-3)[Gal(b1-4)]GlcNAc6S
# In short: as §1
# [14] = target: Fuc(a1-3)[Gal3S(b1-4)]Glc
# In short: as §1
# [15] = target: Fuc(a1-3)[Gal3S(b1-4)]GlcNAc
# In short: as §1
# [16] = target: Fuc(a1-3)[Gal3S(b1-4)]GlcNAc6S
# In short: as §1
# [17] = target: Fuc(a1-3)[GalNAc(b1-4)]GlcNAc
# In short: as §1
# [18] = target: Fuc(a1-3)[GalNAc(b1-4)]GlcNAc6S
# In short: as §1
# [19] = target: Fuc(a1-4)GlcNAc
# In short: as §1
# [20] = target: Fuc(b1-3)GlcNAc
# In short: as §1
# [21] = target: Gal(a1-2)Gal
# In short: as §1
# [22] = target: Gal(a1-3)Gal
# In short: as §1
# [23] = target: Gal(a1-3)Gal(b1-3)GlcNAc
# In short: as §1
# [24] = target: Gal(a1-3)Gal(b1-3)GlcNAc(b1-2)Man
# In short: as §1
# [25] = target: Gal(a1-3)Gal(b1-3)GlcNAc(b1-2)Man(a1-3)[Gal(a1-3)Gal(b1-3)GlcNAc(b1-2)Man(a1-6)]Man(b1-4)GlcNAc(b1-4)GlcNAc
# In short: as §1
# [26] = target: Gal(a1-3)Gal(b1-3)GlcNAc(b1-3)GalNAc
# In short: as §1
# [27] = target: Gal(a1-3)Gal(b1-3)GlcNAc(b1-6)GalNAc
# In short: as §1
# [28] = target: Gal(a1-3)Gal(b1-3)[Fuc(a1-4)]GlcNAc(b1-2)Man(a1-3)[Gal(a1-3)Gal(b1-3)[Fuc(a1-4)]GlcNAc(b1-2)Man(a1-6)]Man(b1-4)GlcNAc(b1-4)GlcNAc
# In short: as §1
# [29] = target: Gal(a1-3)Gal(b1-4)Glc
# In short: as §1
# [30] = target: Gal(a1-3)Gal(b1-4)GlcNAc
# In short: as §1
binder,measurement,setting,value
Awp1 (Candida glabrata) (protein) MSLITIFAFLIKATLVLSLDILTPTTLTGDQTFNEDVSVVSSLTLNDGSQYLFNNLLQIAPSSASVTANALAAVSVFTFSLPPSSSLSNSGTLIISNSNTGPSTEQHIVITPNVMANTGTITLSLAHTNTDSSSTLIIDPVTFYNTGTINYESIGSETNDPSLTGNILSIGSSGRTLQNLGTINLNAANSYYLLGTITENSGSINVQKGFLYVNALDFIGNTINLSTTTALAFISPVSQVVRVRGVFFGNIIASVGSSGTFSYNTQTGILTVTTNGVYSYDIGCGYNPALMSGQQETLSFQGNPYDTFLVLVNQPIPSDLTCAAVSSSITPSSSVEPSSSVVPSSSVEPSSSVEPSSSVEPSSSVEPSSSVEPSSSVEPSSSVEPSSSVEPSSSVEPSSSVEPSSSVEPSSSVEPSSSVEPSSSVEPSSSVEPSSSVEPSSSVEPSSSVEPSSSVEPSSLIVPSSSVEPSSSVLPSSSVVPSSSVEPSTPPIPSSSVEPSSSVVPSSPAVPSSSVEPSTPPIPSSSVVSASVFDTSSTLPSSPSVPPSSVSPSTISTPSSSAAPSSFCPTCVSSGTPPAPSSSAIVPTSSAGGGNGGDNREPGAAGQPGAAGQPGAAGQPGAAGQPGAAGQPGAAGQPGAAGQPGAAGQPGAAGQPGAAGQPGAGFGVGSEQPTPGAGAGSGSADGNQSGTGSGTGNGQQGSGQAGSGQAGSGQEGSGQAGSGQAGSGQAGSGQAGSGQAGLDNTASGQSEGGQASAMDGDQSGRDGQSNSGSLLQPNAQQGTGSGTGSDIGADQASGESPGQIGDAQPGSGTDQSSGRHSLAAEARTSQSHSLAADARTRSTTRQTSVIAPDTAPGTASGTAPGTAPGTAVVTTFHGCGTVNHKGMINILLALALLVLL,glycan array binding signal (z-score),[1],-1.65
same,glycan array binding signal (z-score),[2],0.558
same,glycan array binding signal (z-score),[3],-1.05
same,glycan array binding signal (z-score),[4],-1.84
same,glycan array binding signal (z-score),[5],0.304
same,glycan array binding signal (z-score),[6],2.28
same,glycan array binding signal (z-score),[7],-0.386
same,glycan array binding signal (z-score),[8],-1.82
same,glycan array binding signal (z-score),[9],-1.77
same,glycan array binding signal (z-score),[10],-0.439
same,glycan array binding signal (z-score),[11],-0.218
same,glycan array binding signal (z-score),[12],-0.237
same,glycan array binding signal (z-score),[13],-0.066
same,glycan array binding signal (z-score),[14],2.03
same,glycan array binding signal (z-score),[15],0.794
same,glycan array binding signal (z-score),[16],1.54
same,glycan array binding signal (z-score),[17],1.36
same,glycan array binding signal (z-score),[18],0.022
same,glycan array binding signal (z-score),[19],-0.995
same,glycan array binding signal (z-score),[20],-0.685
same,glycan array binding signal (z-score),[21],-0.059
same,glycan array binding signal (z-score),[22],1.31
same,glycan array binding signal (z-score),[23],0.139
same,glycan array binding signal (z-score),[24],0.906
same,glycan array binding signal (z-score),[25],-0.035
same,glycan array binding signal (z-score),[26],2.21
same,glycan array binding signal (z-score),[27],-1.4
same,glycan array binding signal (z-score),[28],1.01
same,glycan array binding signal (z-score),[29],0.848
same,glycan array binding signal (z-score),[30],-0.142

# In a second layout: results already given
binder	measurement	setting	value
Awp1 (Candida glabrata) (protein) MSLITIFAFLIKATLVLSLDILTPTTLTGDQTFNEDVSVVSSLTLNDGSQYLFNNLLQIAPSSASVTANALAAVSVFTFSLPPSSSLSNSGTLIISNSNTGPSTEQHIVITPNVMANTGTITLSLAHTNTDSSSTLIIDPVTFYNTGTINYESIGSETNDPSLTGNILSIGSSGRTLQNLGTINLNAANSYYLLGTITENSGSINVQKGFLYVNALDFIGNTINLSTTTALAFISPVSQVVRVRGVFFGNIIASVGSSGTFSYNTQTGILTVTTNGVYSYDIGCGYNPALMSGQQETLSFQGNPYDTFLVLVNQPIPSDLTCAAVSSSITPSSSVEPSSSVVPSSSVEPSSSVEPSSSVEPSSSVEPSSSVEPSSSVEPSSSVEPSSSVEPSSSVEPSSSVEPSSSVEPSSSVEPSSSVEPSSSVEPSSSVEPSSSVEPSSSVEPSSSVEPSSSVEPSSLIVPSSSVEPSSSVLPSSSVVPSSSVEPSTPPIPSSSVEPSSSVVPSSPAVPSSSVEPSTPPIPSSSVVSASVFDTSSTLPSSPSVPPSSVSPSTISTPSSSAAPSSFCPTCVSSGTPPAPSSSAIVPTSSAGGGNGGDNREPGAAGQPGAAGQPGAAGQPGAAGQPGAAGQPGAAGQPGAAGQPGAAGQPGAAGQPGAAGQPGAGFGVGSEQPTPGAGAGSGSADGNQSGTGSGTGNGQQGSGQAGSGQAGSGQEGSGQAGSGQAGSGQAGSGQAGSGQAGLDNTASGQSEGGQASAMDGDQSGRDGQSNSGSLLQPNAQQGTGSGTGSDIGADQASGESPGQIGDAQPGSGTDQSSGRHSLAAEARTSQSHSLAADARTRSTTRQTSVIAPDTAPGTASGTAPGTAPGTAVVTTFHGCGTVNHKGMINILLALALLVLL	glycan array binding signal (z-score)	[9]	-1.77
same	glycan array binding signal (z-score)	[22]	1.31
